No constants are given. Whether binding was seen depends on the method and setting. Binding seen in cells or lysates may run through a third protein. Here binding means that the protein was enriched with, or labelled near, the bait; the list need not be complete.
B1: Srx1 (sulfiredoxin, endogenous) (enzyme, UniProt P36077 1-127)
chain: MSLQSNSVKPTEIPLSEIRRPLAPVLDPQKIDAMVATMKGIPTASKTCSLEQAEAAASAGELPPVDVLGVRVKGQTLYYAFGGCHRLQAYDRRARETQNAAFPVRCRVLPATPRQIRMYLGSSLDIE
B2: recombinant Trx1-HIS (enzyme, S. cerevisiae, UniProt P22217 1-103, looked up)
chain: MVTQFKTASEFDSAIAQDKLVVVDFYATWCGPCKMIAPMIEKFSEQYPQADFYKLDVDELGDVAQKNEVSAMPTLLLFKNGKEVAKVVGANPAAIKQAIAANA
B3: Trx2 (thioredoxin, endogenous) (enzyme, UniProt P22803 1-104)
chain: MVTQLKSASEYDSALASGDKLVVVDFFATWCGPCKMIAPMIEKFAEQYSDAAFYKLDVDEVSDVAQKAEVSSMPTLIFYKGGKEVTRVVGANPAAIKQAIASNV

Sequences of proteins named here, by UniProt entry; tags and fusion partners are left off.
UniProt P10591: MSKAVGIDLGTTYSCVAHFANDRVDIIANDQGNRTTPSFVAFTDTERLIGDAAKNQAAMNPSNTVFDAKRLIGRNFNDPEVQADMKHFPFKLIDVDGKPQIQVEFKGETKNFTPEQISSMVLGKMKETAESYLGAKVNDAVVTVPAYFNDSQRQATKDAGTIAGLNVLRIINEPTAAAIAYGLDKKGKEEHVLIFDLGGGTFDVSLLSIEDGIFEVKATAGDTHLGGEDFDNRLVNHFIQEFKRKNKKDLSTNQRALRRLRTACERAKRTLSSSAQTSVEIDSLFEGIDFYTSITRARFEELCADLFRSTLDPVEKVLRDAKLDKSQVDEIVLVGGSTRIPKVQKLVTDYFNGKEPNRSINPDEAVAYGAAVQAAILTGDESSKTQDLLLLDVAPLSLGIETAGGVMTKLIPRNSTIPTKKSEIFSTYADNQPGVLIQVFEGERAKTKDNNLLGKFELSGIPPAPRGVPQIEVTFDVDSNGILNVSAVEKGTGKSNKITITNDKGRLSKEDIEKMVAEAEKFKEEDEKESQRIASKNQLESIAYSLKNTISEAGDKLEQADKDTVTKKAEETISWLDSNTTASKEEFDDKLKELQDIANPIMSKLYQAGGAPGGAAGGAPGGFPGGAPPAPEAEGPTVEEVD
UniProt P31539: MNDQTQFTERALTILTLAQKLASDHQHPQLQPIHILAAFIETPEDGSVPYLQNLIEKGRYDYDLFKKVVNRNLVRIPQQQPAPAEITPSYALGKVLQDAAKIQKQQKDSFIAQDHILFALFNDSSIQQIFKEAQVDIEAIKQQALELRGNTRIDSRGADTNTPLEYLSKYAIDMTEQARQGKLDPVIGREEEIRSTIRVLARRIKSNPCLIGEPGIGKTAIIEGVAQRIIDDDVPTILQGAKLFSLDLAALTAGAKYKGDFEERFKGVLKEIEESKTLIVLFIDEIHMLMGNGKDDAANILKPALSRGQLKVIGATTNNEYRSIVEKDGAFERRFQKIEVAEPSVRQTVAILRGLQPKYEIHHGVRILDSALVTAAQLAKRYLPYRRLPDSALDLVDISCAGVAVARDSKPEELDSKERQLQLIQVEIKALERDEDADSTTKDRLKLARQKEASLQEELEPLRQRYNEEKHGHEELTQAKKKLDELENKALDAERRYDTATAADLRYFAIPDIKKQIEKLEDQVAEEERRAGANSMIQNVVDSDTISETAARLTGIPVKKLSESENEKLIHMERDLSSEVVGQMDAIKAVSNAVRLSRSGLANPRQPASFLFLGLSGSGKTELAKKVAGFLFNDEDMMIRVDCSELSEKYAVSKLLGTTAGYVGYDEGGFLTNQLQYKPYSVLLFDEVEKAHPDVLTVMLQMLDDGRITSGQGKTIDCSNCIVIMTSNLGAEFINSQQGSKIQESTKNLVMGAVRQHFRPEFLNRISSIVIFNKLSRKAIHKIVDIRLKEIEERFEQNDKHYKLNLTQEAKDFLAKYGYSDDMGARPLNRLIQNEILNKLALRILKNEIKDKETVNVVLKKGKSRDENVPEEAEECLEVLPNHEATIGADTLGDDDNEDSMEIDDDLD

These molecules were tested against T1, Tsa1^WT-TAP (S. cerevisiae) (UniProt P34760) (assay: affinity purification with mass spectrometry).
T1 sequence: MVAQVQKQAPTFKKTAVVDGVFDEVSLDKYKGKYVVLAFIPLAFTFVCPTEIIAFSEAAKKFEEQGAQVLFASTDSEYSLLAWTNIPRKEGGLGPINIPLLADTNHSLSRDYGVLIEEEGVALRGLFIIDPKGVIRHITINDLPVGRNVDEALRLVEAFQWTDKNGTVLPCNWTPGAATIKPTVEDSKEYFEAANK

Row | Molecule | binding
1 | Ssa1 (Hsp70, endogenous) (from UniProt P10591 1-642) | binds
2 | Hsp104 (disaggregase, endogenous) (from UniProt P31539 1-908) | binds
3 | B1 | binds
4 | B2 | binds
5 | B3 | binds

Reference: paper doi:10.1101/2023.12.13.571451 (bioRxiv, 2023)
